# doi:10.1101/2022.10.04.510822 (bioRxiv, 2022)
# Sequences of proteins named here, by UniProt entry; tags and fusion partners are left off. A change or cut given only in a name is not applied to a line headed by its entry.
# UniProt O95166, whole entry: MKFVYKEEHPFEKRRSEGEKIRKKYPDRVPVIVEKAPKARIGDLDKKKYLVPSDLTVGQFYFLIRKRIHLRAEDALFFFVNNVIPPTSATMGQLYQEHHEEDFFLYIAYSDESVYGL
# UniProt Q04206, whole entry: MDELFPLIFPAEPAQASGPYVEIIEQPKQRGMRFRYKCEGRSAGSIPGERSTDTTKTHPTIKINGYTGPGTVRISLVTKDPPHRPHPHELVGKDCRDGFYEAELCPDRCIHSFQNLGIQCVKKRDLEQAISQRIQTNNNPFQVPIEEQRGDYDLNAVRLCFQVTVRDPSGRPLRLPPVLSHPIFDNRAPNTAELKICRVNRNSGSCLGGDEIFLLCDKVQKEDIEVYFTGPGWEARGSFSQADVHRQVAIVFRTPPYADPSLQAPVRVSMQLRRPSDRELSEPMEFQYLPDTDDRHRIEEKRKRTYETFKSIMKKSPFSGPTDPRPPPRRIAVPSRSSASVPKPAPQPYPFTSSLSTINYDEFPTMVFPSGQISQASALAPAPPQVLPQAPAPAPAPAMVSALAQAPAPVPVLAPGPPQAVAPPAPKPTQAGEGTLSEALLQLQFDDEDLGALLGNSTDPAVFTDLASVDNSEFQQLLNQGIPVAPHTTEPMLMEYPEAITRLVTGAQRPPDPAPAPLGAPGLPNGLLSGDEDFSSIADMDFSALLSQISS
# UniProt O60264, whole entry: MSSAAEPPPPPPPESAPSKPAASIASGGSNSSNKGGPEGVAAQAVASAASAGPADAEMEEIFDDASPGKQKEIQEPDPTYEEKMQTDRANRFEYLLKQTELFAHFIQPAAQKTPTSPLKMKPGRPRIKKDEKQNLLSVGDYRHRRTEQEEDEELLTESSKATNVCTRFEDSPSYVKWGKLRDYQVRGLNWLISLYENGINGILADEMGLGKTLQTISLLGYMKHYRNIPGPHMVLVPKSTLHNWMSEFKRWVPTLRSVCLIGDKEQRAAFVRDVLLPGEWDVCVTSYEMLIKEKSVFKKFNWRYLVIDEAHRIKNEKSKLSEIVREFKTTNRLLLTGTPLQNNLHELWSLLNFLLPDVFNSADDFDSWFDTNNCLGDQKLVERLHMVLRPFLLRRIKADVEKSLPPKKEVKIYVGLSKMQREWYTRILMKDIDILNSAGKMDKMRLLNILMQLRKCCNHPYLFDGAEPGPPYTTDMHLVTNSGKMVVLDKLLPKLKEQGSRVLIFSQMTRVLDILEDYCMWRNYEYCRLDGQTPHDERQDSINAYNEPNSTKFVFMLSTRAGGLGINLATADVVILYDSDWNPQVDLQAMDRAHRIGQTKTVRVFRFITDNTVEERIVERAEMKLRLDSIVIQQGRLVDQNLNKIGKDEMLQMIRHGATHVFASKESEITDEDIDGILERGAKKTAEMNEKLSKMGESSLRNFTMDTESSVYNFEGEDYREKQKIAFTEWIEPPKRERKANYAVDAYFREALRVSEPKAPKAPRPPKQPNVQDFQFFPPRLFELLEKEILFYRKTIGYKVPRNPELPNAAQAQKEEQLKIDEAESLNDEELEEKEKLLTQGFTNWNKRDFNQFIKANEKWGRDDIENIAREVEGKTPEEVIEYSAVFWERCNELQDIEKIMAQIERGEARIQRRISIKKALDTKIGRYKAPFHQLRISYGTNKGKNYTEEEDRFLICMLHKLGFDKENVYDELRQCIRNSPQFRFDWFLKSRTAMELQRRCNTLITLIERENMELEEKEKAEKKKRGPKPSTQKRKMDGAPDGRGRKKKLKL
# Read-outs that look alike come from different tables or passages of the source. No constants are given. Whether binding was seen depends on the method and setting. In cells and extracts the contact can be indirect. Some entries that bind do so weakly or less than the wild type. For some assays here: Tags and fused reporters may be left off the sequences shown.
# T1: HA-WSTF wild-type (HEK293T) (UniProt Q9UIG0)
# T1 sequence: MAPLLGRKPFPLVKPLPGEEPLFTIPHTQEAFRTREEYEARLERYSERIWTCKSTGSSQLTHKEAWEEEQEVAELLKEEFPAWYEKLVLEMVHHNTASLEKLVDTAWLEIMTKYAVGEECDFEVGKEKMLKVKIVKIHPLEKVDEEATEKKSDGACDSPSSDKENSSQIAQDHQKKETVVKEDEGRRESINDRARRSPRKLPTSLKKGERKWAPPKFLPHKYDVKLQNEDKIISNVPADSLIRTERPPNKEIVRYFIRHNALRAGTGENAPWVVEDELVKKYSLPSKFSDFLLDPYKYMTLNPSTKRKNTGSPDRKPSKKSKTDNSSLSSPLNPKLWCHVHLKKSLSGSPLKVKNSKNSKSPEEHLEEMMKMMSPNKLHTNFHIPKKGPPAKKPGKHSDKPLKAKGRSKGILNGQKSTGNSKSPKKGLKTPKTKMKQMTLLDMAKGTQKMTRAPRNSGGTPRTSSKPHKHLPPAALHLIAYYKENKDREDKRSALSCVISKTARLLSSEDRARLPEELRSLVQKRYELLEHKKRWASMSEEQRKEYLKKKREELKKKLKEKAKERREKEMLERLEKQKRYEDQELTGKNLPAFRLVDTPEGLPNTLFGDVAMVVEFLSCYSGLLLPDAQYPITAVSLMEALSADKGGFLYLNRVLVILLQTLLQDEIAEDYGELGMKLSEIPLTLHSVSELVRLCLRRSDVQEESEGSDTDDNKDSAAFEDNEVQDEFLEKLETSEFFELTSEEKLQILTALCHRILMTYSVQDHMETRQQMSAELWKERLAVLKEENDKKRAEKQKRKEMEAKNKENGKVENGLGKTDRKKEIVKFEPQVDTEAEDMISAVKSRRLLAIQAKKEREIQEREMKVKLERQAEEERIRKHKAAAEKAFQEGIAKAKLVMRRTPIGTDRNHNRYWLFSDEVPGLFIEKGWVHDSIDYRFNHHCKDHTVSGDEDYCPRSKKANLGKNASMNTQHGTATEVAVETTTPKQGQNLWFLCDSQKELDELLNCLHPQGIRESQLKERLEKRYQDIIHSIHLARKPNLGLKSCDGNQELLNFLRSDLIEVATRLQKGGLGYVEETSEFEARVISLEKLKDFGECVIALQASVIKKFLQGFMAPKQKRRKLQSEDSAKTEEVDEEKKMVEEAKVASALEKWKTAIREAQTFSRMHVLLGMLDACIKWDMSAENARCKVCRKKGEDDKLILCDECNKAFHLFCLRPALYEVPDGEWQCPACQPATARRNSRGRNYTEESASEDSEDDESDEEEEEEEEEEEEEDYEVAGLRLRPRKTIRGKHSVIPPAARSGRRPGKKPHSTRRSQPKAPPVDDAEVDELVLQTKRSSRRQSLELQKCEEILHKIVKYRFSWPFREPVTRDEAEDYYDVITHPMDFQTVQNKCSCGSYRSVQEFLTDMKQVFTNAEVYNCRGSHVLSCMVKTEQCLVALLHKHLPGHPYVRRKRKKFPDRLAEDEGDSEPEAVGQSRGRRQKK
# Legend:
# [1] = target: Flag-GABARAP (HEK293T) (human) (UniProt O95166); assay: co-IP
# HA-WSTF L476A (HEK293T) = HA-WSTF L476A (HEK293T) (UniProt Q9UIG0); assay: co-IP
# [2] = target: T1, HA-WSTF wild-type (HEK293T); assay: co-IP
# [3] = target: HA-WSTF △474-483 (HEK293T) (UniProt Q9UIG0); assay: co-IP
# [4] = target: T1, HA-WSTF wild-type (HEK293T); assay: co-IP; remark: listed apart in the source
# [5] = target: In vitro translated Flag-p65 (UniProt Q04206); assay: co-IP
# GST-GABARAP (human) = GST-GABARAP (human) (UniProt O95166); assay: pull-down
# [6] = target: p65, endogenous in IMR90 (human (endogenous in IMR90)) (UniProt Q04206); assay: co-IP
molecule,measurement,setting,value
NLS-HA-PP6 (WSTF 406-552) (from UniProt Q9UIG0 406-552) (domain or fragment),binding,[1],binds
"SNF2H, endogenous in HEK293T (from UniProt O60264 1-1052)",binding,HA-WSTF L476A (HEK293T),binds
same,binding,[2],binds
same,binding,[3],binds
same,binding,[4],binds
"In vitro translated HA-WSTF (wild-type) (protein, UniProt Q9UIG0 1-1483) MAPLLGRKPFPLVKPLPGEEPLFTIPHTQEAFRTREEYEARLERYSERIWTCKSTGSSQLTHKEAWEEEQEVAELLKEEFPAWYEKLVLEMVHHNTASLEKLVDTAWLEIMTKYAVGEECDFEVGKEKMLKVKIVKIHPLEKVDEEATEKKSDGACDSPSSDKENSSQIAQDHQKKETVVKEDEGRRESINDRARRSPRKLPTSLKKGERKWAPPKFLPHKYDVKLQNEDKIISNVPADSLIRTERPPNKEIVRYFIRHNALRAGTGENAPWVVEDELVKKYSLPSKFSDFLLDPYKYMTLNPSTKRKNTGSPDRKPSKKSKTDNSSLSSPLNPKLWCHVHLKKSLSGSPLKVKNSKNSKSPEEHLEEMMKMMSPNKLHTNFHIPKKGPPAKKPGKHSDKPLKAKGRSKGILNGQKSTGNSKSPKKGLKTPKTKMKQMTLLDMAKGTQKMTRAPRNSGGTPRTSSKPHKHLPPAALHLIAYYKENKDREDKRSALSCVISKTARLLSSEDRARLPEELRSLVQKRYELLEHKKRWASMSEEQRKEYLKKKREELKKKLKEKAKERREKEMLERLEKQKRYEDQELTGKNLPAFRLVDTPEGLPNTLFGDVAMVVEFLSCYSGLLLPDAQYPITAVSLMEALSADKGGFLYLNRVLVILLQTLLQDEIAEDYGELGMKLSEIPLTLHSVSELVRLCLRRSDVQEESEGSDTDDNKDSAAFEDNEVQDEFLEKLETSEFFELTSEEKLQILTALCHRILMTYSVQDHMETRQQMSAELWKERLAVLKEENDKKRAEKQKRKEMEAKNKENGKVENGLGKTDRKKEIVKFEPQVDTEAEDMISAVKSRRLLAIQAKKEREIQEREMKVKLERQAEEERIRKHKAAAEKAFQEGIAKAKLVMRRTPIGTDRNHNRYWLFSDEVPGLFIEKGWVHDSIDYRFNHHCKDHTVSGDEDYCPRSKKANLGKNASMNTQHGTATEVAVETTTPKQGQNLWFLCDSQKELDELLNCLHPQGIRESQLKERLEKRYQDIIHSIHLARKPNLGLKSCDGNQELLNFLRSDLIEVATRLQKGGLGYVEETSEFEARVISLEKLKDFGECVIALQASVIKKFLQGFMAPKQKRRKLQSEDSAKTEEVDEEKKMVEEAKVASALEKWKTAIREAQTFSRMHVLLGMLDACIKWDMSAENARCKVCRKKGEDDKLILCDECNKAFHLFCLRPALYEVPDGEWQCPACQPATARRNSRGRNYTEESASEDSEDDESDEEEEEEEEEEEEEDYEVAGLRLRPRKTIRGKHSVIPPAARSGRRPGKKPHSTRRSQPKAPPVDDAEVDELVLQTKRSSRRQSLELQKCEEILHKIVKYRFSWPFREPVTRDEAEDYYDVITHPMDFQTVQNKCSCGSYRSVQEFLTDMKQVFTNAEVYNCRGSHVLSCMVKTEQCLVALLHKHLPGHPYVRRKRKKFPDRLAEDEGDSEPEAVGQSRGRRQKK",binding,[5],binds
same,binding,GST-GABARAP (human),binds
"HA-WSTF (IMR90, stably expressed) (protein, UniProt Q9UIG0 1-1483) MAPLLGRKPFPLVKPLPGEEPLFTIPHTQEAFRTREEYEARLERYSERIWTCKSTGSSQLTHKEAWEEEQEVAELLKEEFPAWYEKLVLEMVHHNTASLEKLVDTAWLEIMTKYAVGEECDFEVGKEKMLKVKIVKIHPLEKVDEEATEKKSDGACDSPSSDKENSSQIAQDHQKKETVVKEDEGRRESINDRARRSPRKLPTSLKKGERKWAPPKFLPHKYDVKLQNEDKIISNVPADSLIRTERPPNKEIVRYFIRHNALRAGTGENAPWVVEDELVKKYSLPSKFSDFLLDPYKYMTLNPSTKRKNTGSPDRKPSKKSKTDNSSLSSPLNPKLWCHVHLKKSLSGSPLKVKNSKNSKSPEEHLEEMMKMMSPNKLHTNFHIPKKGPPAKKPGKHSDKPLKAKGRSKGILNGQKSTGNSKSPKKGLKTPKTKMKQMTLLDMAKGTQKMTRAPRNSGGTPRTSSKPHKHLPPAALHLIAYYKENKDREDKRSALSCVISKTARLLSSEDRARLPEELRSLVQKRYELLEHKKRWASMSEEQRKEYLKKKREELKKKLKEKAKERREKEMLERLEKQKRYEDQELTGKNLPAFRLVDTPEGLPNTLFGDVAMVVEFLSCYSGLLLPDAQYPITAVSLMEALSADKGGFLYLNRVLVILLQTLLQDEIAEDYGELGMKLSEIPLTLHSVSELVRLCLRRSDVQEESEGSDTDDNKDSAAFEDNEVQDEFLEKLETSEFFELTSEEKLQILTALCHRILMTYSVQDHMETRQQMSAELWKERLAVLKEENDKKRAEKQKRKEMEAKNKENGKVENGLGKTDRKKEIVKFEPQVDTEAEDMISAVKSRRLLAIQAKKEREIQEREMKVKLERQAEEERIRKHKAAAEKAFQEGIAKAKLVMRRTPIGTDRNHNRYWLFSDEVPGLFIEKGWVHDSIDYRFNHHCKDHTVSGDEDYCPRSKKANLGKNASMNTQHGTATEVAVETTTPKQGQNLWFLCDSQKELDELLNCLHPQGIRESQLKERLEKRYQDIIHSIHLARKPNLGLKSCDGNQELLNFLRSDLIEVATRLQKGGLGYVEETSEFEARVISLEKLKDFGECVIALQASVIKKFLQGFMAPKQKRRKLQSEDSAKTEEVDEEKKMVEEAKVASALEKWKTAIREAQTFSRMHVLLGMLDACIKWDMSAENARCKVCRKKGEDDKLILCDECNKAFHLFCLRPALYEVPDGEWQCPACQPATARRNSRGRNYTEESASEDSEDDESDEEEEEEEEEEEEEDYEVAGLRLRPRKTIRGKHSVIPPAARSGRRPGKKPHSTRRSQPKAPPVDDAEVDELVLQTKRSSRRQSLELQKCEEILHKIVKYRFSWPFREPVTRDEAEDYYDVITHPMDFQTVQNKCSCGSYRSVQEFLTDMKQVFTNAEVYNCRGSHVLSCMVKTEQCLVALLHKHLPGHPYVRRKRKKFPDRLAEDEGDSEPEAVGQSRGRRQKK",binding,[6],binds
